From PubChem BioAssay AID624297 (National Center for Advancing Translational Sciences (NCATS), 2012)
Screen size: about 340,000 compounds; about 6,200 (1.8%) were called active. Inconclusive means that the source gave no clear call. Such entries were picked first, then a sample of the others. The call rests on the fitted dose curve; in most records, active means well fitted activation curve with a large enough effect; inconclusive means small, poorly fitted or top-dose-only effect; inactive means no such curve, though single readings can be large or run the other way. A potency beside an inconclusive call is a rough fit, not a confirmed value.
Potency means the concentration at half of the fitted maximal effect.

Experiment: A quantitative high throughput screen for small molecules that induce DNA re-replication in SW480 colon adenocarcinoma cells. Further: nearly all actives have a fitted effect of over 55% in size. On re-replication activation: % of control where 0% means no effect.
Conditions: Hoechst DNA content imaging, 48 h; re-replication activation: at 46.1 µM (top of the series) unless noted
Method in brief: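 Per well, 250 cells were exposed to pinned compound for 48 hr. Nuclear DNA was visualised with Hoechst (40 min, 37 C) and total object intensity recorded by fluorescence scanning.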
With `CC(=C/C(=O)O)/C=C/c1ccco1` the Potency was inconclusive: 29.1 µM [activator, single point]. With `O=S(=O)(NC1CCCCC1)c1ccc(N2CCOCC2)nc1` the Potency was inconclusive: 20.6 µM [activator, partial curve, poor fit]. With `Cc1cc(C(=O)OCC(=O)NC(C)C)c2ccccc2n1` the Potency was inconclusive: 20.6 µM [activator, single point]. With `Cc1cccc(COc2ccccc2C(=O)N(C)CC(=O)Nc2cccc(F)c2)c1` the “re-replication activation” value was inactive: 0.397%. With `CCCCCCCC(=O)Oc1ccc(C(=O)Nc2cc(C)on2)cc1` the “re-replication activation” value was inactive: -6.04%. In the case of `CCC(C(=O)NC1CCCCC1)n1c(SCc2cccc(F)c2)nc2ccncc21` (stereo unspecified), the Potency is reported as inconclusive: 13 µM [activator, partial curve, poor fit]. With `Cc1cc(C)cc(NC(=O)c2cnn(-c3ccccc3)c2C2CCNCC2)c1` the Potency was inconclusive: 29.1 µM [activator, single point]. For `O=C(CCNS(=O)(=O)c1ccc2nsnc2c1)N1CCN(c2ccncc2)CC1`, the Potency was inconclusive: 0.326 µM [activator, partial curve, poor fit]. For `CCCCCn1c(CN2CCN(CCO)CC2)nc2c1c(=O)n(C)c(=O)n2C`, the “re-replication activation” value was inactive: -24.5%. For `Cc1ccccc1NC(=O)C(=Cc1ccc(C(=O)O)cc1)C(=O)Nc1ccccc1C`, the Potency was inconclusive: 2.91 µM [activator, full curve, poor fit]. For `COc1ccc(N2Cc3ccc(OC)c(OC)c3C2=O)cc1`, the “re-replication activation” value was inactive: -16.2%. With `CN=c1sc(C(=O)Nc2cccc(Cl)c2)cc(=O)n1C` the Potency was inconclusive: 1.46 µM [activator, partial curve, poor fit]. With `OCCNCc1cc(Br)ccc1OCc1ccc(Cl)cc1Cl` the Potency was inconclusive: 18.4 µM [activator, single point]. In the case of `CC1CC(C)CN(C(=O)c2ccc(CSc3nc4ccncc4[nH]3)cc2)C1` (stereo unspecified), the “re-replication activation” value is reported as inactive: -14.9%. In the case of `Cc1cccc(NCCC(=O)c2ccc(Br)cc2)c1`, the Potency is reported as inconclusive: 18.4 µM [activator, single point]. With `O=C(NCCCCCCCN1CCCCCCC1)C(C1CCCCC1)C1CCCCC1` the Potency was inconclusive: 25.9 µM [activator, single point]. With `CCOC(=O)CC1(NC(=O)c2cc(COc3cccc(OC)c3)on2)CCCCC1` the “re-replication activation” value was inactive: 1.17%. For `O=C(COC(=O)c1cc(=O)[nH]c2ccccc12)NC(=O)c1ccccc1`, the Potency was active: 25.9 µM. For `CC1CCc2c(sc3nc(CN4CCOCC4)nc(N4CCc5ccccc5C4)c23)C1` (stereo unspecified), the “re-replication activation” value was inactive: 2.71%. For `CCCC(C(=O)NCCC(C)C)N(Cc1ccc(OC)cc1)C(=O)c1snc(C(N)=O)c1N` (stereo unspecified), the “re-replication activation” value was inactive: -19.6%. For `O=C(CN1CCC(NC(=O)c2ccc(Br)cc2)CC1)NCc1cccs1`, the Potency was inconclusive: 29.1 µM [activator, single point]. For `Cc1ccc2nc3c(c(Nc4cccc(O)c4)c2c1)CCC3`, the “re-replication activation” value was inactive: -4.6%. With `COc1ccc(C(=O)C[n+]2cccc(C(N)=O)c2)cc1` the “re-replication activation” value was inactive: -12.3%. With `Clc1ccc2nc(CSc3nnc(-c4c[nH]c5ccccc45)o3)cn2c1` the “re-replication activation” value was inactive: -3.11%. For `O=C(O)c1ccc2c(c1Nc1ccccc1)C(=O)c1ccccc1C2=O`, the “re-replication activation” value was inactive: 11.6%. With `CCN(CC)C1Oc2cc3c(cc2C(c2cccc(OC)c2O)C1C)OCO3` (stereo unspecified) the Potency was inconclusive: 18.4 µM [activator, single point]. In the case of `COC(=O)c1ccc(CN2CCC(CO)(CCOc3ccccc3)CC2)cc1`, the Potency is reported as inconclusive: 9.2 µM [activator, partial curve, poor fit]. In the case of `Cc1ccc(Nc2nc3ccccc3o2)cc1F`, the Potency is reported as inconclusive: 23.1 µM [activator, single point]. For `N#Cc1ccc(C(=O)CSc2nnc(-c3ccc(C(F)(F)F)cn3)s2)cc1`, the Potency was active: 3.26 µM. With `CCOc1ccc(NS(=O)(=O)c2cc3c4c(c2)CCN4C(=O)CC3)cc1` the “re-replication activation” value was inactive: 0.293%. In the case of `Cc1ccc(-n2nc(C)cc2Nc2ncc(Cl)cc2Cl)cc1`, the Potency is reported as inconclusive: 4.11 µM [activator, partial curve, poor fit]. In the case of `O=C(NCCc1c[nH]c2ccccc12)[C@@H]1C[C@H]1[C@@H](NP(=O)(c1ccccc1)c1ccccc1)c1ccccc1`, the Potency is reported as inconclusive: 29.1 µM [activator, single point]. In the case of `CC1Cc2ccccc2N1C(=O)c1cc2sccc2n1Cc1ccc(F)cc1` (stereo unspecified), the Potency is reported as inconclusive: 32.6 µM [activator, partial curve, poor fit]. For `COc1ccccc1NC(=O)C1CCCCN1S(=O)(=O)c1ccc(F)cc1` (stereo unspecified), the “re-replication activation” value was inactive: 0.286%. In the case of `Cn1c(=O)oc2cc(S(=O)(=O)NCCC(=O)N3CCc4ccccc4C3)ccc21`, the Potency is reported as inconclusive: 6.31 µM [activator, partial curve, poor fit]. With `CCOC(=O)C1(S(=O)(=O)c2ccc(Cl)cc2)CCN(Cc2ccc(Cl)cc2)CC1` the Potency was inconclusive: 29.1 µM [activator, partial curve, poor fit]. With `Cc1cccn2c(=O)c3cc(S(=O)(=O)c4ccccc4)c(=N)n(Cc4ccc(F)cc4)c3nc12` the Potency was inconclusive: 0.411 µM [activator, partial curve, poor fit]. For `O=C(CC1(O)C(=O)N(Cc2ccc3c(c2)OCO3)c2ccccc21)c1ccccc1` (stereo unspecified), the Potency was inconclusive: 29.1 µM [activator, single point]. In the case of `Cc1c(C(=O)N2CCN(c3ccccc3F)CC2)sc2ncn(CC(=O)N3CCOCC3)c(=O)c12`, the “re-replication activation” value is reported as inactive: -5.58%. For `Cc1ccc(OCC(=O)N2CCN(c3nnc(-c4ccc(C)cc4)c4ccccc34)CC2)cc1`, the Potency was inconclusive: 18.4 µM [activator, single point]. For `O=C(Nc1cc(Cl)cc2c1-c1ccc(Cl)cc1C2O)C(Cl)Cl` (stereo unspecified), the Potency was inconclusive: 29.1 µM [activator, single point]. For `CN1C(=O)C(O)(C2COC(C)(C)CC2=O)c2cc(Br)ccc21` (stereo unspecified), the Potency was inconclusive: 23.1 µM [activator, single point]. In the case of `O=NN(CCCl)C(=O)NC1CCCCC1`, the “re-replication activation” value is reported as inactive: -2.18%. In the case of `Cc1nn(C(C)C(=O)NC2CCCCCC2)c(=O)c2nn(-c3ccccc3)c(C)c12` (stereo unspecified), the Potency is reported as inconclusive: 9.2 µM [activator, partial curve, poor fit]. In the case of `Cc1ccc(NC(=O)CSc2nnc(-c3cccnc3)n2-c2ccc(C)cc2)cc1`, the “re-replication activation” value is reported as inactive: -0.68%. For `O=C(COc1ccccc1)NC(NC(=S)Nc1ccccc1C(=O)O)C(Cl)(Cl)Cl` (stereo unspecified), the “re-replication activation” value was inactive: 3.66%. With `CCOc1cccc(CNc2ccc(O)cc2)c1OCc1ccc(Cl)cc1` the Potency was inconclusive: 18.4 µM [activator, single point]. In the case of `Cc1cc(N/N=C/c2ccc(N(C)C)cc2)c2ccccc2n1`, the Potency is reported as inconclusive: 16.4 µM [activator, single point]. In the case of `CCCS(=O)(=O)NCCc1cc2c(OC)ccc(OC)c2[nH]c1=O`, the “re-replication activation” value is reported as inactive: -5.44%. For `CCCCn1c(N)c(N(CCOC)C(=O)c2cc3c(s2)CCC(C)C3)c(=O)[nH]c1=O` (stereo unspecified), the “re-replication activation” value was inactive: -49.5%. With `Cc1cccn2c(=O)c(/C=C(\C#N)S(=O)(=O)c3ccccc3)c(N3CCN(Cc4ccccc4)CC3)nc12` the “re-replication activation” value was inactive: 31.6%. With `O=C(Nc1nc(-c2ccc(-c3ccccc3)cc2)cs1)C1CCCO1` (stereo unspecified) the Potency was inconclusive: 20.6 µM [activator, single point]. For `CC(C)(C)NC(=O)CSc1ncnc2c1nnn2Cc1ccccc1Cl`, the Potency was inconclusive: 23.1 µM [activator, single point]. For `Cc1ccc(C(c2nnnn2Cc2cccs2)N2CCN(C(=O)c3ccco3)CC2)cc1` (stereo unspecified), the Potency was inconclusive: 32.6 µM [activator, partial curve, poor fit]. For `CCn1cc(C(=O)O)c(=O)c2cc(F)c(N3CCN(C(=S)NC(=O)c4ccc(Br)cc4)CC3)cc21`, the Potency was inconclusive: 23.1 µM [activator, single point]. In the case of `O=C(C1=C[C@H](c2ccc(C(F)(F)F)cc2)C[C@H](OCc2ccc(CO)cc2)O1)N1CCN(Cc2ccccc2)CC1`, the Potency is reported as inconclusive: 29.1 µM [activator, partial curve, poor fit]. In the case of `COc1ccccc1C(=O)COC(=O)CN1C(=O)NC2(CCCC2)C1=O`, the “re-replication activation” value is reported as inactive: -4.97%. With `O=C(O)Cc1cn(-c2ccccc2)nc1-c1ccc(Cl)cc1` the Potency was inconclusive: 7.31 µM [activator, single point]. With `COc1cccc2cc(-c3nc4ccccc4[nH]3)c(=O)oc12` the Potency was inconclusive: 8.2 µM [activator, partial curve]. In the case of `O=C(NNC(=O)c1cc(S(=O)(=O)N2CCCCC2)ccc1Cl)c1ccccc1O`, the Potency is reported as inconclusive: 29.1 µM [activator, single point]. For `O=C(C1CCCN(S(=O)(=O)c2ccc(F)cc2)C1)N1CCCCC1` (stereo unspecified), the “re-replication activation” value was inactive: -59.3%. For `O=C(NCCc1csc(-c2cccnc2)n1)c1cccs1`, the “re-replication activation” value was inactive: -18.8%. In the case of `CC(CNc1ccc(Cl)cc1)(CNc1ccc(Cl)cc1)[N+](=O)[O-]`, the Potency is reported as inconclusive: 29.1 µM [activator, single point]. In the case of `COC(=O)CNC(c1ccccc1)c1cc(Br)ccc1NS(=O)(=O)c1ccc(C)cc1` (stereo unspecified), the “re-replication activation” value is reported as inactive: 4.15%. For `O=C1C(=O)c2c(ccc3ccccc23)-c2ccccc21`, the Potency was active: 9.2 µM. With `O=C(OCC(O)COc1ccccc1)c1ccc([N+](=O)[O-])cc1` (stereo unspecified) the Potency was inconclusive: 0.731 µM [activator, single point]. For `O=C(N/N=C/c1cc(Br)ccc1O)c1ccncc1`, the Potency was inconclusive: 0.731 µM [activator, full curve, poor fit]. For `COc1ccc(CNCC(O)(c2ccc(Cl)cc2)c2ccc(Cl)cc2)cc1`, the Potency was inconclusive: 4.11 µM [activator, single point]. For `O=S(=O)(NCc1cccnc1)c1ccc(Cl)c2ccccc12`, the “re-replication activation” value was inactive: -22.3%. With `CCn1c(=S)sc2c(=O)n(-c3ccccc3)c(SC)nc21` the “re-replication activation” value was inactive: 2.26%. For `C/C(=N\NC(=S)NC(C)C)c1ccc(Cl)s1`, the Potency was inconclusive: 32.6 µM [activator, partial curve, poor fit].
